From PMC3962495 come the findings set out here.

Chains of the proteins cited; added tags and fusions are not shown. Lines headed by an entry give the natural chain unless they say otherwise; changes in a name come on top.
UniProt P25685: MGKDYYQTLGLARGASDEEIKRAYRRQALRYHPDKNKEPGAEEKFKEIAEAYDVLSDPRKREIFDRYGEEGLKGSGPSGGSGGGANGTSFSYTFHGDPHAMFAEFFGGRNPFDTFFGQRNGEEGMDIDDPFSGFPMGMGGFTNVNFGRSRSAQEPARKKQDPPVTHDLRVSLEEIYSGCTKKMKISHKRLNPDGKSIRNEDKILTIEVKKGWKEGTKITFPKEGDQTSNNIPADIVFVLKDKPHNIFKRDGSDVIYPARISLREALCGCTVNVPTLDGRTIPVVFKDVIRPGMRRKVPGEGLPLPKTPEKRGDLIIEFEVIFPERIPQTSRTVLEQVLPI
UniProt P14618: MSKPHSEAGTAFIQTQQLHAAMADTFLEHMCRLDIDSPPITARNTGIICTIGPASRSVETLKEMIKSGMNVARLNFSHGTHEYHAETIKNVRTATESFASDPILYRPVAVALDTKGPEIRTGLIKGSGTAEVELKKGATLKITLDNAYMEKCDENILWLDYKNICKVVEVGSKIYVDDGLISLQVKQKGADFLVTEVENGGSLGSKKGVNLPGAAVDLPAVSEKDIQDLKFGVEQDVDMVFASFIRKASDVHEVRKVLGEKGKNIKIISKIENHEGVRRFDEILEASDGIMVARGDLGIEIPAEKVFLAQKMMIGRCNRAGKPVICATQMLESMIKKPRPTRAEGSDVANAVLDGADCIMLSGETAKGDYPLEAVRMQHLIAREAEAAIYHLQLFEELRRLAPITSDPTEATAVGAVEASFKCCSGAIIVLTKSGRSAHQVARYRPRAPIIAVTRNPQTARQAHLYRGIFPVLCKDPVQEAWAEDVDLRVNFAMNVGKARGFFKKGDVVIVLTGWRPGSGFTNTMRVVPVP
UniProt P11142: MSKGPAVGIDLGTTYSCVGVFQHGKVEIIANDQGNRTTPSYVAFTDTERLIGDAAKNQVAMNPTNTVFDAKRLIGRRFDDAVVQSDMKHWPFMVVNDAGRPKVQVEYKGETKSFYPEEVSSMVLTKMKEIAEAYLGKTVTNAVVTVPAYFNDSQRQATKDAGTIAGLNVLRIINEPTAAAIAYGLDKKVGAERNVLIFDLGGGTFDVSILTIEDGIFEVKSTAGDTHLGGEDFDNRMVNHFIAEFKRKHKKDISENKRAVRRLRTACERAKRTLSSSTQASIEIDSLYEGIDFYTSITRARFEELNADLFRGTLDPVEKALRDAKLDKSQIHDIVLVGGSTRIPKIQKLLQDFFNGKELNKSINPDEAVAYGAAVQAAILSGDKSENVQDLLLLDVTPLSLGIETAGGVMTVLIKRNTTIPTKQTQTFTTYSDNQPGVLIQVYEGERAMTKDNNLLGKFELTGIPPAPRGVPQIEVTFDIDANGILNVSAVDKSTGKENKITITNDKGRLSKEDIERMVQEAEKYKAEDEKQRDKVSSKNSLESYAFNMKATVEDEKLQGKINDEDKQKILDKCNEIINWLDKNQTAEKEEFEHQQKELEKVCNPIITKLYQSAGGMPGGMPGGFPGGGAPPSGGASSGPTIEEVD

These are yes or no findings as the source states them, for the method shown. Binding seen in cells or lysates may run through a third protein. Some results given as binding are weak or reduced against the parent protein; the word gives no strength.

The target of experiment [1] is endogenous HSP40 of HeLa cells (human (endogenous in HeLa)) (UniProt P25685). The experiment can be described thus: co-IP; endogenous proteins of HeLa cell lysate; anti-PKM2 or anti-HSP40 antibody and protein A plus-agarose overnight at 4 °C; blot with anti-PKM2 and anti-HSP40.
In experiment [2] the target is endogenous PKM2 of HeLa cells (human (endogenous in HeLa)) (UniProt P14618). The description is as above.
The target in experiment [3] is Flag-HSP40 (full-length HSP40/DNAJB1) (human) (UniProt P25685). The experiment in a line: co-IP; HEK293T cells co-transfected with HA- and Flag-tagged proteins; whole cell lysate with anti-HA or anti-Flag antibody and protein A plus-agarose overnight at 4 °C; blot for the other tag.
Experiment [4] concerns the target HA-PKM2 (full-length pyruvate kinase M2) (human) (UniProt P14618). Described as above.

In the case of “endogenous PKM2 of HeLa cells (from UniProt P14618 1-531)”, the binding result in experiment [1] is on record as “binds”.
For the substance “endogenous HSP40 of HeLa cells (from UniProt P25685 1-340)”, the binding entry in experiment [2] was “binds”.
In the case of “HA-PKM2 (full-length pyruvate kinase M2) (from UniProt P14618 1-531)”, in experiment [3], the binding result is on record as “binds”.
Still for that read-out and setting: the entry for “HA-HSC70 (full-length HSC70) (from UniProt P11142 1-646)” is “binds”.
For the substance “Flag-HSP40 (full-length HSP40/DNAJB1) (from UniProt P25685-1 1-340)”, the binding result in experiment [4] is given as “binds”.
